Common to all, as to assay: pull-down
The target of assay [1] is T1, 6His-Swi6 (heterochromatin protein Swi6^HP1) (S. pombe) (UniProt P40381).
T1 sequence: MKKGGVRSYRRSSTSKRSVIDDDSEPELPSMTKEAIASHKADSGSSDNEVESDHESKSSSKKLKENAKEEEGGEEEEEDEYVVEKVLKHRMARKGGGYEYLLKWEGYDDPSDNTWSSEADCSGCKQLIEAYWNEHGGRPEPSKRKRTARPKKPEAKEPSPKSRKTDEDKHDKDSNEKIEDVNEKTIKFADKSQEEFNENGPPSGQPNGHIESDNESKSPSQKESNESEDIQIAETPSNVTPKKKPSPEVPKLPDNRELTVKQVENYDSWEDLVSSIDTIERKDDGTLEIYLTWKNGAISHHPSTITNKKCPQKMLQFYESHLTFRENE

Amino acid sequences for entries named in this document (tags omitted).
UniProt O60016, whole entry: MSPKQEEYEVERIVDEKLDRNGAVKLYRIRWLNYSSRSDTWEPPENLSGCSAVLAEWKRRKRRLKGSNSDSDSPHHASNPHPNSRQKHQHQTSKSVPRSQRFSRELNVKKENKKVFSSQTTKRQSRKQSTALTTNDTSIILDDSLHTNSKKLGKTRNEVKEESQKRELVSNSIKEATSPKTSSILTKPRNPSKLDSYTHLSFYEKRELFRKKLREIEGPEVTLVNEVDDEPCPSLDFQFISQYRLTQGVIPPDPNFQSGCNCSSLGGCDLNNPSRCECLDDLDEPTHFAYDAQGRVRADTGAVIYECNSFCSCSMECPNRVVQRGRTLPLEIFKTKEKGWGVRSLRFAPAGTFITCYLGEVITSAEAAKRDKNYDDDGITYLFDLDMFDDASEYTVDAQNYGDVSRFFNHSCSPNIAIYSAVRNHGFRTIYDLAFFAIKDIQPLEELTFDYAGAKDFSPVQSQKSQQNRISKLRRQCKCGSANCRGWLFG

Assay [2] deals with T1, 6His-Swi6 (heterochromatin protein Swi6^HP1) (S. pombe). The source holds these as a separate data set.
The target in another assay is T2, GST-Clr3 (S. pombe) (UniProt P56523).
T2 sequence: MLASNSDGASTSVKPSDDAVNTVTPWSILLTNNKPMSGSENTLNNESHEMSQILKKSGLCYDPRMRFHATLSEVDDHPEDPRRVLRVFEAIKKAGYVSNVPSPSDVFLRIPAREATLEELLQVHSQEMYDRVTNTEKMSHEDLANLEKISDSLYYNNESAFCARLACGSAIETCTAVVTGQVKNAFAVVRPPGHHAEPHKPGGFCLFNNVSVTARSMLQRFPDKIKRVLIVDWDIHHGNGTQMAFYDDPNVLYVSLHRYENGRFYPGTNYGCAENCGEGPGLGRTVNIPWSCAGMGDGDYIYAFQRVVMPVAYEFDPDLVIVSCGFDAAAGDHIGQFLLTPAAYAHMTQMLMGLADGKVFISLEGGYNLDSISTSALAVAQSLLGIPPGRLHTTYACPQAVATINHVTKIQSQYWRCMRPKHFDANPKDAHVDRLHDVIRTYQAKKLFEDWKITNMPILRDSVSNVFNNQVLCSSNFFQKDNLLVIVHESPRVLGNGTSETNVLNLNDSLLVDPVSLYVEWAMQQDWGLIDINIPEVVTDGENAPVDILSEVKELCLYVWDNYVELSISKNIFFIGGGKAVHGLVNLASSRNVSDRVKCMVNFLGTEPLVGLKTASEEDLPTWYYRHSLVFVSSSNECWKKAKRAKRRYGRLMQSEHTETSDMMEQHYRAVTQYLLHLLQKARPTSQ

The next assay addresses GST-Clr4 (S. pombe) (UniProt O60016).
The target in the next assay is T3, MBP-Clr6 (S. pombe) (UniProt O59702).
T3 sequence: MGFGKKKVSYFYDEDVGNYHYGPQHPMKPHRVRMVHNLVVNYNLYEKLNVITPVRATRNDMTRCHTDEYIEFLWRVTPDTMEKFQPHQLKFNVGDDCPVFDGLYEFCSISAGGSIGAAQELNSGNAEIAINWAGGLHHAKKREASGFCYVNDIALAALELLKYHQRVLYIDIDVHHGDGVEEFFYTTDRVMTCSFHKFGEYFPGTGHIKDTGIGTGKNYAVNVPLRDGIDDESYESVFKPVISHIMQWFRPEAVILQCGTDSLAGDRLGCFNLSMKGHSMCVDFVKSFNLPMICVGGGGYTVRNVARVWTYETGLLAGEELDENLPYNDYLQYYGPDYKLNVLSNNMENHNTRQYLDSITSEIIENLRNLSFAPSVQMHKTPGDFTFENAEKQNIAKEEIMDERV

Like-named read-outs stand apart in the source and are kept apart here. Results are given in words; binding and its absence hold for the method and conditions named. In cells and extracts the contact can be indirect. Some results given as binding are weak or reduced against the parent protein; the word gives no strength. For some of these results: Where a sequence is shown, tags or fusion partners need not be part of it.

This note sets out measurements from publication PMC10863984.

B1: Pcr1-3xFlag (protein, UniProt Q09926 1-171)
chain: MTAKKKEVDDEKRRRILERNRIAASKFRQKKKEWIKELEQTANAAFEQSKRLQLLLSQLQQEAFRLKSQLLAHQGCQCSVKIRSVLTDFQTAHNALHSQHMAYRPVQPPPGDNMLESVVSVSPTQMHPSLQGLPPNQHPQMPPSSQQPNSDDVQQHMFSAAGLPRSLGGPI
As for B1, the binding entry in assay [1] is “binds”.

B2: HA-Atf1 (wild type, expressed from P_(sty1)-HA-atf1) (protein, UniProt P52890 1-566)
chain: MSPSPVNTSTEPASVAAVSNGNATASSTQVPENNQSDSFAPPSNNSQQNQQSSTIAPNGGAGSVANANPADQSDGVTPSFVGSLKLDYEPNPFEHSFGSTASVGQGNPSLNRNPSLSNIPSGVPPAFARTLLPPVSSIASPDILSGAPGIASPLGYPAWSAFTRGTMHNPLSPAIYDATLRPDYLNNPSDASAAARFSSGTGFTPGVNEPFRSLLTPTGAGFPAPSPGTANLLGFHTFDSQFPDQYRFTPRDGKPPVVNGTNGDQSDYFGANAAVHGLCLLSQVPDQQQKLQQPISSENDQAASTTANNLLKQTQQQTFPDSIRPSFTQNTNPQAVTGTMNPQASRTQQQPMYFMGSQQFNGMPSVYGDTVNPADPSLTLRQTTDFSGQNAENGSTNLPQKTSNSDMPTANSMPVKLENGTDYSTSQEPSSNANNQSSPTSSINGKASSESANGTSYSKGSSRRNSKNETDEEKRKSFLERNRQAALKCRQRKKQWLSNLQAKVEFYGNENEILSAQVSALREEIVSLKTLLIAHKDCPVAKSNSAAVATSVIGSGDLAQRINLGY
Turning to B2, the figures for the binding entry in assay [2] and in assay [1] were “binds weakly” and “binds”, respectively.

B3: Atf1 (endogenous, in lysates of wild type or wis1-DD yeast strains) (protein, UniProt P52890 1-566)
chain: MSPSPVNTSTEPASVAAVSNGNATASSTQVPENNQSDSFAPPSNNSQQNQQSSTIAPNGGAGSVANANPADQSDGVTPSFVGSLKLDYEPNPFEHSFGSTASVGQGNPSLNRNPSLSNIPSGVPPAFARTLLPPVSSIASPDILSGAPGIASPLGYPAWSAFTRGTMHNPLSPAIYDATLRPDYLNNPSDASAAARFSSGTGFTPGVNEPFRSLLTPTGAGFPAPSPGTANLLGFHTFDSQFPDQYRFTPRDGKPPVVNGTNGDQSDYFGANAAVHGLCLLSQVPDQQQKLQQPISSENDQAASTTANNLLKQTQQQTFPDSIRPSFTQNTNPQAVTGTMNPQASRTQQQPMYFMGSQQFNGMPSVYGDTVNPADPSLTLRQTTDFSGQNAENGSTNLPQKTSNSDMPTANSMPVKLENGTDYSTSQEPSSNANNQSSPTSSINGKASSESANGTSYSKGSSRRNSKNETDEEKRKSFLERNRQAALKCRQRKKQWLSNLQAKVEFYGNENEILSAQVSALREEIVSLKTLLIAHKDCPVAKSNSAAVATSVIGSGDLAQRINLGY
For the molecule B3, the binding result (in assay [1]; with GST-Clr3 (S. pombe); in the assay with GST-Clr4 (S. pombe); with MBP-Clr6 (S. pombe)) was “binds” in each case.
